Experimental findings from paper PMC5833831 are described below.

Amino acid sequences for entries named in this document (tags omitted). A change or cut given only in a name is not applied to a line headed by its entry.
UniProt O95863: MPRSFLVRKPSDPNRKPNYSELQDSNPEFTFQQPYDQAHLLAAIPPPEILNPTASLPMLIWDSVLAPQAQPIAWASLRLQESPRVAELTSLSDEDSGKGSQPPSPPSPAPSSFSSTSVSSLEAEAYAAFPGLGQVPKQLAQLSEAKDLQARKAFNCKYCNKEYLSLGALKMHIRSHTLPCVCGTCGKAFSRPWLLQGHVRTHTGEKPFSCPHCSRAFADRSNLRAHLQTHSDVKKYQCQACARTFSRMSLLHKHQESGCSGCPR

Results are given in words; binding and its absence hold for the method and conditions named. In cells and extracts the contact can be indirect. Some binding calls cover weakened binding; strength is not graded here. For part of these data: Where a sequence is shown, tags or fusion partners need not be part of it.

The target in experiment [1] is Flag-SNAI1 (pcDNA3.1-3×Flag-SNAI1) (UniProt O95863). As to the kind of experiment: co-IP; GFP-tagged truncations of PPIL2 or of SNAI1 expressed in T47D cells (Fig. 3e, f).
The target in another experiment is GST-SNAI1 fusion protein (UniProt O95863). As to the kind of experiment: pull-down; Pierce GST Protein Interaction Pull-Down Kit; purified GST-SNAI1 immobilised on the spin column; PPIL2 blotted from MCF-7 cell lysate; only the target purified.
Experiment [2] deals with endogenous SNAI1 (human (endogenous in T47D)) (UniProt O95863). As to the kind of experiment: co-IP; endogenous PPIL2 and SNAI1 in T47D cells (Fig. 3c, d).

B1: GFP-PPIL2-Ubox (domain or fragment, UniProt Q13356 35-108)
chain: RRLPFDHCSLSLQPFVYPVCTPDGIVFDLLNIVPWLKKYGTNPSNGEKLDGRSLIKLNFSKNSEGKYHCPVLFT
On to B1, for which, in experiment [1], the binding entry is given as “binds”.

B2: endogenous PPIL2 (enzyme, UniProt Q13356 1-520)
chain: MGKRQHQKDKMYITCAEYTHFYGGKKPDLPQTNFRRLPFDHCSLSLQPFVYPVCTPDGIVFDLLNIVPWLKKYGTNPSNGEKLDGRSLIKLNFSKNSEGKYHCPVLFTVFTNNTHIVAVRTTGNVYAYEAVEQLNIKAKNFRDLLTDEPFSRQDIITLQDPTNLDKFNVSNFYHVKNNMKIIDPDEEKAKQDPSYYLKNTNAETRETLQELYKEFKGDEILAATMKAPEKKKVDKLNAAHYSTGKVSASFTSTAMVPETTHEAAAIDEDVLRYQFVKKKGYVRLHTNKGDLNLELHCDLTPKTCENFIRLCKKHYYDGTIFHRSIRNFVIQGGDPTGTGTGGESYWGKPFKDEFRPNLSHTGRGILSMANSGPNSNRSQFFITFRSCAYLDKKHTIFGRVVGGFDVLTAMENVESDPKTDRPKEEIRIDATTVFVDPYEEADAQIAQERKTQLKVAPETKVKSSQPQAGSQGPQTFRQGVGKYINPAATKRAAEEEPSTSATVPMSKKKPSRGFGDFSSW
Regarding B2, the binding entry (with GST-SNAI1 fusion protein; in experiment [2]) was “binds” each time.
